The assay in a line: qHTS Assay for Lipid Storage Modulators in Drosophila S3 Cells.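 On cell number change: cells counted by Cell Tracker Red CMTPX staining in the red channel.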 To be noted: BODIPY lipid droplet fluorescence, 18-24 h; for cell number change: measured here: cell count max response, cells fed with added oleic acid. Summed up:
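Drosophila S3 cells loaded with oleic acid (400 uM, as added) and compounds at several concentrations; lipid droplets imaged by 488-nm laser-scanning cytometry, 500–530 nm intensity and object ratio to cell channel. Percent activity normalized to 20 uM Triacsin C.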

Setting [1] is: measured here: lipid fluorescence (Fed channel) AC50, cells fed with added oleic acid.
[2] abbreviates: measured here: cell number channel AC50, cells fed with added oleic acid.

This is one part of the list. These are further read-outs of the screen, such as a control signal, another cell line or another target. No call is given for them. Compounds called inactive in the main read-out are mostly missing here. Potencies come from curve fits of mixed quality, noted in brackets.

`Cc1ccc(N(CC(=O)NCc2ccco2)C(=O)CNS(=O)(=O)c2ccc(F)cc2)c(C)c1`: the cell number change came to 8.75%. Further, the AC50 under setting [1] is 0.291 µM [falling, partial curve, poor fit].
For the molecule `Cc1ccc(S(=O)(=O)N(C)C)cc1NC(=O)c1cc(C(C)(C)C)nn1Cc1ccccc1`, the cell number change was -44.4%. For the same molecule, the AC50 under setting [2] is 2.91 µM [falling, partial curve]. Further, the AC50 under setting [1] was 9.2 µM [falling, partial curve].
Consider `CC(C)N(CCNC(=O)C1CCCN(c2ncnc3c2nc2n3CCCCC2)C1)Cc1ccccc1` (stereo unspecified), for which the cell number change was -17.9%. Moreover, the AC50 under setting [1] was 23.1 µM [rising, partial curve].
For `Cc1nc(N)sc1-c1csc(Nc2cccc(C(=O)O)c2)n1`, the cell number change was 5.29%. In addition, the AC50 under setting [1] was 6.51 µM [rising, single point].
For the molecule `COC(CNC(=O)CNC(=S)N(Cc1ccccc1)Cc1cccs1)OC`, the cell number change stood at 19.2%. For the same molecule, under setting [2], the AC50 was 2.91 µM [rising, single point]. In addition, the AC50 under setting [1] is 2.59 µM [rising, partial curve].
For `CC(C)(C)c1csc(NC(=O)C2=COCCO2)n1`, the cell number change turned out to be 10.5%.
On to `C=CCN1C(=O)C2C(C(=O)NCc3ccccc3)C3(C)C=CC2(O3)C1C(=O)NC(C)(C)C` (stereo unspecified), for which the cell number change is 31.5%. For the same molecule, under setting [2], the AC50 was 1.84 µM [rising, partial curve, poor fit].
`COc1cc(N2CCCC2)c(OC)cc1/C=C(/C#N)c1cccc(Br)c1`: the cell number change is -64.3%. Moreover, the half-maximal activity concentration (AC50) under setting [2] was 29.1 µM [falling, single point]. Further, the AC50 under setting [1] was 29.1 µM [falling, single point].
In the case of `COc1ccccc1C(=O)NCCCNC(=O)c1ccccn1`, the cell number change is -13.3%.
For `Cc1nn(C)cc1C=NCCOCc1ccccc1`, the cell number change is -15.6%. The AC50 under setting [1] was 2.91 µM [rising, single point].
For the molecule `CCCN(CCO)CCCc1ccccc1`, the cell number change was -92.1%. Also, the AC50 under setting [2] was 23.1 µM [falling, partial curve].
With `CCN(C(=O)COC(=O)CCc1ccccc1OC)c1c(N)n(Cc2ccccc2)c(=O)[nH]c1=O`, the cell number change is -10.2%. Also, the AC50 under setting [2] is 0.146 µM [falling, full curve]. For the same molecule, the AC50 under setting [1] is 0.164 µM [falling, full curve].
For `Cc1ccccc1-n1nnnc1SCC(N)=O`, the cell number change was determined as 6.84%. Also, the AC50 under setting [1] is 0.0366 µM [falling, full curve, poor fit].
As for `CCOC(=O)c1nc2cc3n(c(C)c-2c1C)C(C)C(C)=C3C` (stereo unspecified), the cell number change is 96.6%. Besides, the AC50 under setting [2] is 18.4 µM [rising, partial curve].
For the molecule `COc1ccc(OCCOc2ccc(/C=C3\C(=N)N4N=C(C)SC4=NC3=O)cc2)cc1`, the cell number change was determined as 4.95%. Moreover, the AC50 under setting [1] was 0.411 µM [rising, full curve, poor fit].
With `Cc1ccc(C(=O)N2N=C(c3ccc(Br)cc3)CC2c2ccccc2O)cc1` (stereo unspecified), the cell number change is -58.7%. The AC50 under setting [2] is 18.4 µM [falling, partial curve, poor fit]. Also, the AC50 under setting [1] is 0.731 µM [falling, full curve].
In the case of `Cn1cnnc1SCC(=O)Nc1ccccc1Oc1ccccc1`, the cell number change was -10.7%.
Consider `O=C(NCc1ccc2c(c1)OCO2)c1ccc2c(c1)C(=O)N(Cc1cccnc1)C2=O`, for which the AC50 under setting [2] was 2.31 µM [rising, partial curve] and the concentration at half-maximal activity (AC50) under setting [1] is 2.06 µM [rising, partial curve].
On to `CCCCNc1nc(N)ncc1[N+](=O)[O-]`, for which the cell number change was determined as 0.82%. The AC50 under setting [1] was 0.651 µM [falling, full curve, poor fit].
With `CCC(C)Sc1nnc(Cc2cc(=O)[nH]c(=O)[nH]2)n1-c1ccc(F)cc1` (stereo unspecified), the cell number change was determined as 8.22%.
As to `O=C(CNS(=O)(=O)c1ccc([N+](=O)[O-])cc1)N/N=C\c1ccc(O)cc1`, the cell number change is 19%. The AC50 under setting [1] was 20.6 µM [falling, partial curve, poor fit].
As to `COC(=O)c1ccc(NC(=S)N2CCN(Cc3cccc(C)c3)CC2)cc1`, under setting [1], the AC50 is 23.1 µM [rising, single point].
For `CCOc1ccccc1N(C)C(=O)c1cn(C)c(=O)c2ccccc12`, the cell number change worked out at 19.4%. Moreover, under setting [1], the AC50 was 9.2 µM [rising, partial curve].
Regarding `COc1ccccc1C1C(C(=O)c2cc3ccccc3o2)=C(O)C(=O)N1CCN1CCOCC1` (stereo unspecified), the cell number change worked out at 8.19%. In addition, the AC50 under setting [1] was 0.146 µM [falling, full curve, poor fit].
Consider `O=C1C(c2ccccc2)SC(=Nc2ccccc2)N1S(=O)(=O)c1ccccc1` (stereo unspecified), for which the cell number change is 5.9%. Moreover, the AC50 under setting [1] is 23.1 µM [falling, single point].
Consider `O=C(O)c1ccc(N2C(=O)c3cccnc3C2=O)cc1`, for which the cell number change was -11.8%. For the same molecule, under setting [1], the AC50 is 23.1 µM [falling, partial curve].
As to `Cc1cc(NC(=O)Cn2nc(C)c([N+](=O)[O-])c2C)no1`, the cell number change was -40.8%. Besides, the AC50 under setting [2] was 7.31 µM [falling, single point].
As to `CN(CC(=O)Nc1ccc(F)cc1)C(=O)CCc1ccccc1`, the cell number change came to 6.05%.
In the case of `CCCCOc1ccc(C2(C)NC(=O)NC2=O)cc1` (stereo unspecified), the cell number change stood at 14.4%. Further, under setting [1], the AC50 is 0.146 µM [falling, full curve].
For the molecule `N#Cc1ccc(NC(=O)CSc2nc3[nH]c(=O)cc(O)c3s2)cc1`, the cell number change was -19.9%. Besides, the AC50 under setting [2] is 0.0326 µM [falling, full curve, poor fit].
Regarding `S=c1[nH]nc(-c2n[nH]c3c2CCC3)n1/N=C/C=C/c1ccco1`, the cell number change was determined as 28.2%. Moreover, the AC50 under setting [1] is 6.51 µM [rising, full curve, poor fit].
Regarding `Nc1nc(SCC(=O)NCCOCCO)nc2sc3c(c12)CCCC3`, the cell number change is 15%. Also, the AC50 under setting [1] was 0.82 µM [falling, full curve, poor fit].
Consider `COc1cc(/C=N/NC(=O)Cn2nc([N+](=O)[O-])cc2C)cc(Br)c1OCc1ccccc1`, for which the half-maximal activity concentration (AC50) under setting [1] was 0.58 µM [rising, single point].
On to `COc1cc(OC)cc(C(=O)Nc2ccc3c(c2)OCCO3)c1`, for which the half-maximal activity concentration (AC50) under setting [1] is 29.1 µM [falling, single point].
Consider `Cc1cccc(NC(=O)CSCC(=O)N2CCN(Cc3ccc4c(c3)OCO4)CC2)c1`, for which, under setting [1], the AC50 is 0.58 µM [rising, single point].
`COCCCn1c(=O)c2ccccc2n(Cc2cc(C(=O)OC)ccc2OC)c1=O`: the cell number change is -6.04%. Under setting [1], the AC50 was 6.51 µM [falling, single point].
Consider `CCc1ccc(OCCCC(=O)Nc2ccc(N3CCCCC3)cc2)cc1`, for which the cell number change is -7.13%.
As to `COc1cc(CNc2ccc(O)cc2)cc(Br)c1OCc1ccccc1F`, the cell number change is -3.92%. Further, under setting [1], the AC50 was 16.4 µM [falling, single point].
For `CCO[C@@H]1c2c(ccc3ccc(=O)oc23)OC(C)(C)[C@@H]1O`, the cell number change is -21.1%. Moreover, under setting [2], the half-maximal activity concentration (AC50) is 0.651 µM [falling, full curve, poor fit].
In the case of `NCCCCCC(=O)N/N=C/c1ccc2nccnc2c1`, the cell number change was -13.3%. Moreover, under setting [1], the AC50 is 13 µM [falling, partial curve].
As to `COc1cc(NS(=O)(=O)c2ccc(F)cc2)c(OC)cc1NC(C)=O`, the cell number change was -2.83%. Moreover, under setting [1], the AC50 is 0.164 µM [rising, full curve, poor fit].
Take `CN(CC(=O)Nc1cccc(F)c1)C(=O)c1ccc(N2CCCC2)c([N+](=O)[O-])c1`: the AC50 under setting [1] is 18.4 µM [rising, single point].
On to `O=c1[nH]cnc2c1sc1nc(C(F)F)cc(-c3ccccc3)c12`, for which the cell number change is -6.1%. The half-maximal activity concentration (AC50) under setting [1] is 3.66 µM [rising, full curve].
With `CCc1cccc(CC)c1NC(=S)NC(C)c1ccccc1` (stereo unspecified), the cell number change was found to be 9.15%. Moreover, the AC50 under setting [2] was 6.51 µM [rising, single point]. Moreover, the AC50 under setting [1] is 32.6 µM [falling, single point].
Take `Cn1c(=O)c2c(-c3ccc(C(C)(C)C)cc3)n(CC3CCCO3)cc2n(C)c1=O` (stereo unspecified): the cell number change is -0.153%. Under setting [1], the AC50 was 0.00461 µM [falling, full curve, poor fit].
Consider `Cc1nnc(SC(C)C(=O)Nc2ccc3ccccc3c2)[nH]c1=O` (stereo unspecified), for which the cell number change was found to be 5.22%. For the same molecule, the AC50 under setting [1] was 29.1 µM [rising, single point].
Consider `CC(C)C(=O)Nc1ccc(C(=O)Nc2nnc(C(C)(C)C)s2)cc1`, for which the cell number change is -2.23%.
As for `O=C(Nc1nc(COc2ccccc2)cs1)C12CC3CC(CC(C3)C1)C2`, the cell number change turned out to be 77.3%. Further, the AC50 under setting [2] is 29.1 µM [rising, single point]. For the same molecule, the AC50 under setting [1] is 20.6 µM [rising, partial curve].
Take `COc1ccc(C2N(c3ccccc3)C(=S)N3CCCN23)cc1` (stereo unspecified): the cell number change is -11%. The AC50 under setting [1] is 0.00651 µM [falling, full curve, poor fit].
`CCN(CC(=O)NC1CCS(=O)(=O)C1)S(=O)(=O)c1cc([N+](=O)[O-])ccc1C` (stereo unspecified): the cell number change is 1.5%. In addition, the AC50 under setting [1] is 29.1 µM [rising, single point].
With `COc1ccc(N/C(=N/c2nc(C)cc(C)n2)NC(=O)Nc2ccc(Cl)c(Cl)c2)c(OC)c1`, under setting [1], the AC50 was 0.058 µM [rising, full curve, poor fit].
In the case of `COc1cccc(CN(C(=O)c2cnccn2)C(C(=O)NC2CCCCC2)c2cc(OC)c(OC)c(OC)c2)c1` (stereo unspecified), the cell number change is 8.26%. Moreover, the AC50 under setting [1] was 6.51 µM [falling, single point].
In the case of `COc1cc(-c2noc(C)c2C#Cc2ccc(N)cc2)cc(OC)c1OC`, the cell number change was -23.3%.
With `Cc1ccccc1Nc1c(-c2ccccc2)nc2ncccn12`, the cell number change was 23.9%. The AC50 under setting [1] was 6.51 µM [rising, partial curve, poor fit].
In the case of `O=C(/C=C/c1ccc(N2CCCCC2)c([N+](=O)[O-])c1)c1ccc(S(=O)(=O)N2CCCC2)cc1`, the AC50 runs as follows: under setting [2], 6.51 µM [falling, partial curve, poor fit]; under setting [1], 6.51 µM [falling, single point].
Take `CC(O)c1cccc(NC2=CC(=O)CC(C)(C)C2)c1` (stereo unspecified): the cell number change was determined as 2.99%. Under setting [1], the AC50 is 8.2 µM [rising, partial curve].
For `CCOCCCn1c(=NC(=O)c2cccnc2)c(C(=O)OCC)cc2c(=O)n3ccccc3nc21`, the cell number change stood at 18%. Besides, under setting [2], the AC50 is 0.259 µM [rising, full curve]. Also, the AC50 under setting [1] is 0.366 µM [rising, full curve].
In the case of `CC(=O)Oc1ccc(OC(C)=O)c(S(=O)(=O)c2ccc(C)c(C)c2)c1`, the cell number change came out at 41.4%. Moreover, under setting [2], the AC50 is 7.31 µM [rising, partial curve].
Regarding `Cc1ccc(C(=O)N2CCN(c3ccccc3Cl)CC2)cc1[N+](=O)[O-]`, the AC50 under setting [2] was 3.66 µM [falling, partial curve].

For the origin of these results see PubChem BioAssay AID2685 (National Center for Advancing Translational Sciences (NCATS), 2010).
